Experimental findings from article PMC6265484, “Homodimerization regulates an endothelial specific signature of the SOX18 transcription factor” (Nucleic Acids Research, 2018) are described below.

The exact form of at least one protein or probe is not confirmed. For some assays here: The comparison behind a weaker result is the experiment's own reference, which may not be listed here. For some assays here: At least one verdict was read from the data and is not stated in words by the source. For some assays here: Tags and fusion partners may be left off the protein sequences shown.

Series [1] deals with T1, SOX18 full length (mouse) (UniProt P43680).
T1 sequence (looked up, limits assumed): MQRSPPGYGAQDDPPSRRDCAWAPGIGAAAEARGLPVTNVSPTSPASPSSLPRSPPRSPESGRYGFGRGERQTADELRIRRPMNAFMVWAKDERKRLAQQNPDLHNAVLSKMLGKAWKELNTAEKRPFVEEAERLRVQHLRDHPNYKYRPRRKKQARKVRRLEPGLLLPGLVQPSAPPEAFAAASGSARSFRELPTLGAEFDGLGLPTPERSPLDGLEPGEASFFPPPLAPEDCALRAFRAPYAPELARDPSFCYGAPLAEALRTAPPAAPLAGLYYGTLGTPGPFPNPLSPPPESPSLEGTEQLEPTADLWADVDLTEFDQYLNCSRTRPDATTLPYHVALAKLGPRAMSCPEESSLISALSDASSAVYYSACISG
Description: fluorescence polarization. The note with it: 2 mM Mg2+, lower mP than IR5; FP: 30 mM HEPES pH 7.5, 100 mM KCl, 40 mM NaCl, 10 mM ammonium acetate, 10 mM guanidinium HCl, 2 mM MgCl2, 0.5 mM EDTA, 0.01% NP-40, room temp, 5 nM DNA, 5-150 nM protein; recombinant protein; protein details: N-terminal HIS-GST; label: 5'-fluorescein.

A further series relates to SOX18DIM/SOX7 swap. Description: AlphaScreen. To be noted: dose-dependent signal with IR5, monomers co-bind; protein translated in vitro. On the technique in general: Alpha assays give light when donor and acceptor beads are brought close together.

On to “CGCCAGTAACAATAGGGCGGCTTATTGTTCCGGGGGC (double strand) [IR10 (FP)]”, for which, in series [1], the binding result is “binds more weakly”.
In the case of “CGCCAGTAGGAACAATGCGGCATTGTTTTCCGGGGGC (double strand) [IR5 (AlphaScreen)]”, the binding result in the series with SOX18DIM/SOX7 swap is “binds”.
